PubChem BioAssay AID1671195 – Yale University – 2021

- Test: 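Genes whose knockdown alters LDL uptake in liver cancer cells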 (primary screen)
- System: human Huh7 hepatoma cells
- Knock-down reagent: siRNA pool against human genes, 18 nM
- Time to read-out: about 2 to 2.5 days of knockdown, then 8 h LDL uptake
- Treatment: DiI-labelled LDL at 30 µg/ml for 8 h, in lipoprotein-deficient serum medium
- Read-out: 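Fluorescent LDL signal imaged in cells, scaled to the plate median, robust z-score for each replicate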
- Direction: robust z-score: higher = more LDL uptake after knockdown
- Rule for the call: 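a gene counts as active if at least two replicate z-scores exceed ±2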
In all, the deposit lists about 22,000 reagents; shown is an unselected part. Of all reagents, about 1,510 (6.9%) are marked active. 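Active includes knockdowns raising or lowering LDL uptake; positive z-scores mean more uptake, negative mean less.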 A number with no mark means an inactive call.

Gene | robust z-score, replicate 1 | robust z-score, replicate 2 | robust z-score, replicate 3
ORMDL3 (ORMDL sphingolipid biosynthesis regulator 3) | 0.313 | 0.685 | 1.02
GPR65 (G protein-coupled receptor 65) | 1.4 | 0.28 | 1.2
NUDCD1 (NudC domain containing 1) | -0.0831 | -0.0608 | -0.354
IFNA21 (interferon alpha 21) | 0.0902 | 0.145 | 0.422
TES (testin LIM domain protein) | -1.06 | -1.07 | 0.0217
KAT2B (lysine acetyltransferase 2B) | -0.503 | -0.706 | -0.196
FTLP2 (ferritin light chain pseudogene 2) | -0.768 | -0.419 | -0.112
MILR1 (mast cell immunoglobulin like receptor 1) | -1.29 | -1.14 | -1.31
CBLC (Cbl proto-oncogene C) | 0.371 | -0.903 | -1.08
MB (myoglobin) | -0.665 | -0.846 | -0.829
ANKRD18DP (ankyrin repeat domain 18D, pseudogene) | -0.57 | -0.0316 | -0.461
PAX2 (paired box 2) | -0.16 | -0.631 | 0.719
AATF (apoptosis antagonizing transcription factor) | 0.141 | 0.0166 | -0.103
YWHAH | -0.759 | -1.44 | -0.656
MAP2K5 (mitogen-activated protein kinase kinase 5) | 2.08 (active) | 2.37 | 2.24
LSMEM1 (leucine rich single-pass membrane protein 1) | -0.567 | -0.777 | -0.687
SACK1A (scaffolding CK1 anchoring protein A) | -1.04 | -0.753 | -0.591
LOC442032 (retired record) | 0.388 | 0.658 | -1.98
HACE1 | -0.673 | -0.863 | -0.468
TMEM131 (transmembrane protein 131) | 1.28 | 2.06 | 0.831
LOC401178 (retired record) | 1.54 | 1.24 | 0.997
DESI1 (desumoylating isopeptidase 1) | 2 | 0.277 | 1.34
NUDC (nuclear distribution C, dynein complex regulator) | -1.85 | -2.44 | -0.996
BTBD1 (BTB domain containing 1) | 0.748 | 1.06 | 0.503
GGN (gametogenetin) | 0.481 | 1.34 | 0.959
SUN3 (Sad1 and UNC84 domain containing 3) | -1.2 | -1.24 | -1.29
SSX3 (SSX family member 3) | -0.873 | -0.651 | -0.911
TDRD1 (tudor domain containing 1) | 0.0348 | 0.723 | -0.334
RBM17 (RNA binding motif protein 17) | 2.56 (active) | 2.01 | 2.43
CYP2U1 (cytochrome P450 family 2 subfamily U member 1) | -1.46 | -1.25 | -1.12
SPIN3 (spindlin family member 3) | -1.07 | -0.934 | -0.896
SLFN5 (schlafen family member 5) | -0.663 | 0.983 | -0.0945
TEX38 (testis expressed 38) | 0.933 | 0.823 | 0.773
PAXX (PAXX non-homologous end joining factor) | 3.03 (active) | 3.11 | 3.84
OR6K2 (olfactory receptor family 6 subfamily K member 2) | -0.919 | -0.67 | -0.73
SLC9A7 | 0.451 | 0.126 | 0.846
LOC388545 (retired record) | 1.57 | 1.66 | 1.73
ADAMTS19 (ADAM metallopeptidase with thrombospondin type 1 motif 19) | -0.36 | -0.333 | -0.374
LRRC10 (leucine rich repeat containing 10) | -1.2 | -0.999 | -1.37
ISOC2 (isochorismatase domain containing 2) | -0.972 | -1.26 | -0.952
MGARP (mitochondria localized glutamic acid rich protein) | -1.36 | -1.2 | -1.67
DSC3 (desmocollin 3) | 0.0972 | -0.102 | 0.584
LOC387932 (retired record) | -0.289 | -0.207 | 0.183
ACRBP (acrosin binding protein) | -1.5 | -1.15 | -0.384
LOC441894 (retired record) | -2.04 (active) | -2.65 | -2.28
MRPL30 (mitochondrial ribosomal protein L30) | 0.133 | -0.557 | 0.419
ALKAL2 (ALK and LTK ligand 2) | 0.846 | 0.993 | 0.282
LOC283117 (retired record) | 1.73 | 1.48 | 1.89
CNGA4 (cyclic nucleotide gated channel subunit alpha 4) | -0.752 | -0.648 | -0.611
EFCAB7 (EF-hand calcium binding domain 7) | 0.132 | 1.59 | -0.114
SLC22A6 | -1.28 | -1.36 | -1.39
DIRAS1 (DIRAS family GTPase 1) | -1.31 | -1.21 | -1.35
OR5T1 (olfactory receptor family 5 subfamily T member 1) | 0.897 | 0.663 | 0.793
SLC44A5 | -0.379 | -0.829 | -0.477
ATIC | 0.619 | 1.44 | 0.623
PORCN (porcupine O-acyltransferase) | 1.26 | 1.21 | 1.06
RPS6P17 (ribosomal protein S6 pseudogene 17) | 0.988 | 0.656 | 1.34
HSF2BP (heat shock transcription factor 2 binding protein) | -1.29 | -0.87 | -0.281
TIMCC (TIM double twin CX3C motif chaperone) | 0.246 | 0.18 | 0.203
HUS1B (HUS1 checkpoint clamp component B) | 0.504 | 0.762 | 0.536
PLD3 (phospholipase D family member 3) | -1.11 | -0.899 | -0.551
LOC440283 (retired record) | -0.694 | -0.4 | -0.305
AMTN (amelotin) | -1.4 | -1.84 | -1.62
ZNF540 (zinc finger protein 540) | -2.23 (active) | -1.83 | -2.08
DENND1A (DENN domain containing 1A) | 0.22 | -0.215 | -1.2
SLC9A2 | 0.697 | 0.624 | -0.102
SACK1B (scaffolding CK1 anchoring protein B) | -1.06 | -1.19 | -0.837
SSX1 (SSX family member 1) | 0.421 | 1.2 | 0.494

In a second layout: results already given
Gene,"robust z-score, replicate 1","robust z-score, replicate 2","robust z-score, replicate 3"
LSMEM1 (leucine rich single-pass membrane protein 1),-0.567,-0.777,-0.687
SACK1A (scaffolding CK1 anchoring protein A),-1.04,-0.753,-0.591
LOC442032 (retired record),0.388,0.658,-1.98
HACE1,-0.673,-0.863,-0.468
TMEM131 (transmembrane protein 131),1.28,2.06,0.831
LOC401178 (retired record),1.54,1.24,0.997
DESI1 (desumoylating isopeptidase 1),2,0.277,1.34
"NUDC (nuclear distribution C, dynein complex regulator)",-1.85,-2.44,-0.996
BTBD1 (BTB domain containing 1),0.748,1.06,0.503
GGN (gametogenetin),0.481,1.34,0.959
SUN3 (Sad1 and UNC84 domain containing 3),-1.2,-1.24,-1.29
